Values of other authors as cited in patent publication US20090036424A1, “ASSOCIATION BETWEEN HLA-DRBI*07 ALLELE AND SUSCEPTIBILY TO INCREASED LEVELS OF ALAT FOLLOWING XIMELAGATRAN ADMINISTRATION” (AstraZeneca AB, priority 2005, published 2009).
At least one compound was matched to its structure with a doubt left.

Columns and labels:
trypsin = trypsin (Homo sapiens, UniProt P07477); settings: prodrug itself; cited from earlier work
thrombin = thrombin (Homo sapiens, UniProt P00734); settings: prodrug itself; cited from earlier work

## CCOC(=O)CN[C@@H](C(=O)N1CC[C@H]1C(=O)NCc1ccc(/C(N)=N\O)cc1)C1CCCCC1 [ximelagatran, EtOOC—CH2—(R)Cgl-Aze-Pab-OH]
trypsin
  activity per se to trypsin: inactive per se
thrombin
  activity per se to thrombin: inactive per se
